Assay results taken from paper PMC9169357.
These are yes or no findings as the source states them, for the method shown. In cells and extracts the contact can be indirect. Some results given as binding are weak or reduced against the parent protein; the word gives no strength.

Amino acid sequences for entries named in this document (tags omitted). Residues count along the entry.
UniProt P02751, residues 32-2477: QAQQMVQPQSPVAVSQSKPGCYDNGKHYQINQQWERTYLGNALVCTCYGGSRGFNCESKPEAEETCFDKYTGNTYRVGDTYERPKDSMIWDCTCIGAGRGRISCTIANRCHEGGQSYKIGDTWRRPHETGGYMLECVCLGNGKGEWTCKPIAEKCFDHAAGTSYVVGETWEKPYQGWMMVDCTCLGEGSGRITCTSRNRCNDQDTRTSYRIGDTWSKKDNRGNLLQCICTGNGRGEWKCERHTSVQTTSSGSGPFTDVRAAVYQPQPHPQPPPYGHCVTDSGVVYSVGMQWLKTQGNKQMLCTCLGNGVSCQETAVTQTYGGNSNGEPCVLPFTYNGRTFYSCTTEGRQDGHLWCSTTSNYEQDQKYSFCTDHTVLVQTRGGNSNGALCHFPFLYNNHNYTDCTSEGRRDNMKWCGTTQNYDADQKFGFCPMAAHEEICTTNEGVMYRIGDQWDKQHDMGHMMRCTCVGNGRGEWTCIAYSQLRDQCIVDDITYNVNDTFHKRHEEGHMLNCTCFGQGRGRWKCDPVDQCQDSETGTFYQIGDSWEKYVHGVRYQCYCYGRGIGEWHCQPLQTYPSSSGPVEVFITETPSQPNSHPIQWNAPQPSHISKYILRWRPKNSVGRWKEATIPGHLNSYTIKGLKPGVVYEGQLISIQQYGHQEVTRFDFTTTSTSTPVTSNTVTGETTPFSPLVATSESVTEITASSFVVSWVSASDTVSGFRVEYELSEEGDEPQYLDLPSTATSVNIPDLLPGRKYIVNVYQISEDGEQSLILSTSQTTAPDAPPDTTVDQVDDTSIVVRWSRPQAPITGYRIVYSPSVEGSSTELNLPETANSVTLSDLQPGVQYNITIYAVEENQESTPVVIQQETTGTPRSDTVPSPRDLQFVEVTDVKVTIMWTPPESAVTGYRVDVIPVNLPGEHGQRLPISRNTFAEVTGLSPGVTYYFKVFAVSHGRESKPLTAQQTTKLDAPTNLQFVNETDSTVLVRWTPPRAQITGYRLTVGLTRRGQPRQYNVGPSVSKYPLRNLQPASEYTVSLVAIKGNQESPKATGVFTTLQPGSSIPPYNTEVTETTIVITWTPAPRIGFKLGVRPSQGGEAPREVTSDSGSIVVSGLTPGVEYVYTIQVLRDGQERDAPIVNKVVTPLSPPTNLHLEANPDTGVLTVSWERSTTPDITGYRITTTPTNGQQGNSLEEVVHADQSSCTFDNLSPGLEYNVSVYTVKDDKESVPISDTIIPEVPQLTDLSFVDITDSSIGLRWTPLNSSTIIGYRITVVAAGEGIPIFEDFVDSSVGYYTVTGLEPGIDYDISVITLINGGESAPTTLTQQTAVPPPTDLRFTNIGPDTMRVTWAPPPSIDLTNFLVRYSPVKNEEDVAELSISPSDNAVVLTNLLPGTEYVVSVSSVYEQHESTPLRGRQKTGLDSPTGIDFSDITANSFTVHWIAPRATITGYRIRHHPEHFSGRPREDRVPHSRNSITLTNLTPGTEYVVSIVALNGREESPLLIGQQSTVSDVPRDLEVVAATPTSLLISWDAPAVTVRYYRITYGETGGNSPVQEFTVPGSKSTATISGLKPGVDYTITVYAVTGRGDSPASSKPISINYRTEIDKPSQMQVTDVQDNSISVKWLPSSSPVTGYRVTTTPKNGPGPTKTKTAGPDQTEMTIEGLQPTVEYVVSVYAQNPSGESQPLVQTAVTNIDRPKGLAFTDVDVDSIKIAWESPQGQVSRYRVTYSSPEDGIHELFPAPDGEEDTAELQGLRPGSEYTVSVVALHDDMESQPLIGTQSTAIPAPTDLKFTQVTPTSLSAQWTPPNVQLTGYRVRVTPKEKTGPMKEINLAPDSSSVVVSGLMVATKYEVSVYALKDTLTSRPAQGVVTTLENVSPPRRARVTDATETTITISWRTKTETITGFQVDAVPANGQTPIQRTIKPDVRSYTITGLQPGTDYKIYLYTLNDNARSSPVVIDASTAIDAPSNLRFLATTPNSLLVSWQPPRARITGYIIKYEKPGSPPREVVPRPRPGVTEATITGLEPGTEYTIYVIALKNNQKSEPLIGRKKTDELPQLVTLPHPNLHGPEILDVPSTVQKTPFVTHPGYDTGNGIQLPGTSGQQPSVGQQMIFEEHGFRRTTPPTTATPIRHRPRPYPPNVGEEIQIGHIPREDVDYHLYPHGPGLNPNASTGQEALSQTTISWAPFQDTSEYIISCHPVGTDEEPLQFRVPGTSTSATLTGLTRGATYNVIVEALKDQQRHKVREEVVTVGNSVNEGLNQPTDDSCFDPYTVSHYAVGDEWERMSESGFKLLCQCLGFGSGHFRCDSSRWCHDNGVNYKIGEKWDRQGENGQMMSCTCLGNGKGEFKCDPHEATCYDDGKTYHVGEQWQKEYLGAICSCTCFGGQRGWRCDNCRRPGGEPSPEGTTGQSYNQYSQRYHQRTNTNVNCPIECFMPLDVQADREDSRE

Columns and labels:
[1] = biological target: T1, dysadherin overexpressed in HCT116 cells (UniProt Q96DB9); assay: co-IP; co-IP with the anti-dysadherin antibody M53 from CRC cell lysates (SW480 with or without dysadherin KO; HCT116 with or without dysadherin OE), immunoblot for fibronectin
T1 sequence: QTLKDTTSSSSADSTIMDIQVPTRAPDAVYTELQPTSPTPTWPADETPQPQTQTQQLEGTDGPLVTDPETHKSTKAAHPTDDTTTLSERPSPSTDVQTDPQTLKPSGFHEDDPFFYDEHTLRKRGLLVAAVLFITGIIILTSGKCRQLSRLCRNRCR

[2] = biological target: T2, dysadherin (human (endogenous in SW480)) (UniProt Q96DB9); assay: as above
T2 sequence: T1 sequence

binding [1]: binds
binding [2]: binds
Substance: fibronectin (from UniProt P02751 32-2477)
